Reference: the supplement of paper PMC12819154, “High-throughput peptide-centric local stability assay extends protein–ligand identification to membrane proteins, tissues and bacteria” (Nature Structural & Molecular Biology, 2025)
The other results are listed elsewhere or left out. Most values lie at the level of the controls, where differences are scatter.

Amino acid sequences for entries named in this document (tags omitted). A change or cut given only in a name is not applied to a line headed by its entry.
UniProt Q9CQ06, whole entry: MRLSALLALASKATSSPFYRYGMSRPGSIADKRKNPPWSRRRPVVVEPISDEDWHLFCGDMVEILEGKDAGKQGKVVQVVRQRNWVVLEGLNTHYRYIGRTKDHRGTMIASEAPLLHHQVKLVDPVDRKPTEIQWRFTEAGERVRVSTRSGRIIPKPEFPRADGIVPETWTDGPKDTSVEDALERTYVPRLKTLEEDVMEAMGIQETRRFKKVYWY
UniProt Q9CQN1: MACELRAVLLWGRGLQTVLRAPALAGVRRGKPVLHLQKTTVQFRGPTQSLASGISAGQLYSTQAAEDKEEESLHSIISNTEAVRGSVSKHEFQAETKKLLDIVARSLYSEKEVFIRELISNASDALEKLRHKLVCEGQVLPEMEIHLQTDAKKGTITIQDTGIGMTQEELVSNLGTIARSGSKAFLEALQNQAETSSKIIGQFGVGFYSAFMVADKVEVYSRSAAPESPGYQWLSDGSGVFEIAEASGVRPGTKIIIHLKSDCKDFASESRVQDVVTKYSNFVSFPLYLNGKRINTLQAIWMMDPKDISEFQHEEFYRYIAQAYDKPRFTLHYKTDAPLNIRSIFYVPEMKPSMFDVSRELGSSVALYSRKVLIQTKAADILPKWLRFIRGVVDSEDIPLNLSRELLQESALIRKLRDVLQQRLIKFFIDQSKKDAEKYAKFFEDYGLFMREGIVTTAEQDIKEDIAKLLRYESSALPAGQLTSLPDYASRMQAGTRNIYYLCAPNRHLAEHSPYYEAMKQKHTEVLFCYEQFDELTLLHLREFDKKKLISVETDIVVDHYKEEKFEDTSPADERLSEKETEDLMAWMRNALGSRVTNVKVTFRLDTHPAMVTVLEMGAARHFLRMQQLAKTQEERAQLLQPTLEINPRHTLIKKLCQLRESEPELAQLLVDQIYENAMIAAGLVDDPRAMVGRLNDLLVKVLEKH
UniProt Q9CQV4: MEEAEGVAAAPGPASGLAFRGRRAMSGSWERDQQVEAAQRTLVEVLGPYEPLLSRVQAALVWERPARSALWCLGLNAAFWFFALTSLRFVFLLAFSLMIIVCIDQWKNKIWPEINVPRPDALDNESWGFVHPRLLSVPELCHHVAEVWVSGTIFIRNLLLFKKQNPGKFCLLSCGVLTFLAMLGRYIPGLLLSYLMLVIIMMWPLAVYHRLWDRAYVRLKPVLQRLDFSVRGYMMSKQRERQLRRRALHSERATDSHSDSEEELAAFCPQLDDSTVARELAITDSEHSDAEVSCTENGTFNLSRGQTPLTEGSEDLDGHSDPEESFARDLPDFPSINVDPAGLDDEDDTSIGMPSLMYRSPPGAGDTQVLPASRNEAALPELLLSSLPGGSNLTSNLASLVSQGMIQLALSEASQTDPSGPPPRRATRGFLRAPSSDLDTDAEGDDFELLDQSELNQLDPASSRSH
UniProt Q9CQ10: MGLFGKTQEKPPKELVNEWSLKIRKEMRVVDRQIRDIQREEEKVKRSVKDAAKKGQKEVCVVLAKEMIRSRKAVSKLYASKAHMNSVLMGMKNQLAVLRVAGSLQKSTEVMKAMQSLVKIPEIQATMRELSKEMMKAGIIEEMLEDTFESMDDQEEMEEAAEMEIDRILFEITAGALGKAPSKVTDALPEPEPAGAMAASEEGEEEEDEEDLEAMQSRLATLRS
UniProt Q99NG0: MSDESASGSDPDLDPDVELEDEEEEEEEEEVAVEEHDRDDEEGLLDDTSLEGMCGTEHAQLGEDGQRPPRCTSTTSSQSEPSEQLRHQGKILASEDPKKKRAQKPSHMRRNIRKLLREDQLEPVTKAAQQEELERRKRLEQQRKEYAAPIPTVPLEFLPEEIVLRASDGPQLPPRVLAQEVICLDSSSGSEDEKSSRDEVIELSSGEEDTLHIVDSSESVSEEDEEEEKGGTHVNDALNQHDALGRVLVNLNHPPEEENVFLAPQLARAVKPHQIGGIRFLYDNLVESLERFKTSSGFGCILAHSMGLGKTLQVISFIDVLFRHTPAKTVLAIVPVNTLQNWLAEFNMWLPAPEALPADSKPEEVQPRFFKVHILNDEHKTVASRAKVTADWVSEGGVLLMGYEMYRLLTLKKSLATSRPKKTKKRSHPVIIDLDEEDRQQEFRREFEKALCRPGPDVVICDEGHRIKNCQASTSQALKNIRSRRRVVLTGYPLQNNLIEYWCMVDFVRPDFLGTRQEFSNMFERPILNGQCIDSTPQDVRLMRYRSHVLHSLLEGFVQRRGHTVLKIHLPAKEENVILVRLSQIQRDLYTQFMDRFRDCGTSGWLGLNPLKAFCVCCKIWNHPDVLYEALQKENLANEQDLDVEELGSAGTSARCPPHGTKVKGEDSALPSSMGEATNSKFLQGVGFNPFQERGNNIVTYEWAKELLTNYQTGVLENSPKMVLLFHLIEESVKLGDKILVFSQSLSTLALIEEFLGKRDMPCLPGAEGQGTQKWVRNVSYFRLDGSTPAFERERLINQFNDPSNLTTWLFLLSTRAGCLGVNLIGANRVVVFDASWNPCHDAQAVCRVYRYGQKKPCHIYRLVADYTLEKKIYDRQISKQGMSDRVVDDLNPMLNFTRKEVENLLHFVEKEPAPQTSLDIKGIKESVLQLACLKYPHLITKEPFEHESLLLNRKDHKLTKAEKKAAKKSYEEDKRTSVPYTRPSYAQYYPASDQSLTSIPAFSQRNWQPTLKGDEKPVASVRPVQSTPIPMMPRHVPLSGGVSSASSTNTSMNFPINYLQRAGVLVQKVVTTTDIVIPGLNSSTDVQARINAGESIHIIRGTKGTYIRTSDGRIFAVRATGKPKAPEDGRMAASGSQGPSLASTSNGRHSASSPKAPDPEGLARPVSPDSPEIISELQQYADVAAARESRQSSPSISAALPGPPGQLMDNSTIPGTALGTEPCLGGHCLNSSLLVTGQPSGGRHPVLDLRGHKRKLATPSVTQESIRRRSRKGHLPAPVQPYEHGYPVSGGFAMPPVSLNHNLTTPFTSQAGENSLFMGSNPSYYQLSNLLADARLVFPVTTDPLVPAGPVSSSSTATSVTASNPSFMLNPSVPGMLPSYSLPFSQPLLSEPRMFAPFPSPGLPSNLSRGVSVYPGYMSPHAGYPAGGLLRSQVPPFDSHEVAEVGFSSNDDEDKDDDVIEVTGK
UniProt Q9CPV5: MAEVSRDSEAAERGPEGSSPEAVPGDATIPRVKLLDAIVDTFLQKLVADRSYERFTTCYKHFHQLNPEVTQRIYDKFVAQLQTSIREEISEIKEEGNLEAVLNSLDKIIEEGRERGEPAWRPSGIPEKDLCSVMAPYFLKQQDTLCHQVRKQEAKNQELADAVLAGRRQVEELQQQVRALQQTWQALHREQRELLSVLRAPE
UniProt Q9CPU0: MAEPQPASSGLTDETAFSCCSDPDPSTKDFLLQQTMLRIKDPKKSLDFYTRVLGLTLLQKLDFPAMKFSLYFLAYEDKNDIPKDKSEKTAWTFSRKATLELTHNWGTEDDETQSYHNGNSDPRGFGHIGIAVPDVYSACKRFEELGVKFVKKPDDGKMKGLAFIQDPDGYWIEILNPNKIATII
UniProt Q9CQZ5, whole entry: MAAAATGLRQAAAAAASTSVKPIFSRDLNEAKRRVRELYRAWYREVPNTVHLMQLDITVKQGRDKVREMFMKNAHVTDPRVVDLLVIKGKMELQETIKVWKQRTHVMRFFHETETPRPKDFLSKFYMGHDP
UniProt Q9CQC5, whole entry: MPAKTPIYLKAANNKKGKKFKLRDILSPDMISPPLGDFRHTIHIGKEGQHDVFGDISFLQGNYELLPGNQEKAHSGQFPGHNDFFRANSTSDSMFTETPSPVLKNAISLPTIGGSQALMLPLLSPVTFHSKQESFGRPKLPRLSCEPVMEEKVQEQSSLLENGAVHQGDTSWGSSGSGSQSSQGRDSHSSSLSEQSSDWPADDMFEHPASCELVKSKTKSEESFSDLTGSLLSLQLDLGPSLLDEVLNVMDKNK
UniProt Q99P31: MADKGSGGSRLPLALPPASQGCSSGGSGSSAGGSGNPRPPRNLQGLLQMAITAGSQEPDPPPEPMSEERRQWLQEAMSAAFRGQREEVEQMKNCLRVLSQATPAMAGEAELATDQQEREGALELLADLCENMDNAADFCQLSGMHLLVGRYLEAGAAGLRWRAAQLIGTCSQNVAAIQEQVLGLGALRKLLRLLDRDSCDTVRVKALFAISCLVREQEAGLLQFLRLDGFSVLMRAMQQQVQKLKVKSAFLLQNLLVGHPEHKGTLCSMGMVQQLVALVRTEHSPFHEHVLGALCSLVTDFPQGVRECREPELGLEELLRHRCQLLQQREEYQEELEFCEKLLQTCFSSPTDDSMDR
UniProt Q9CR51, whole entry: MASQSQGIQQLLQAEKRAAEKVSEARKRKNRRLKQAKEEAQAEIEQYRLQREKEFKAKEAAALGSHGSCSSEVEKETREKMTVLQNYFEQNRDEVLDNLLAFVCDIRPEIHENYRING

compound: CN[C@@H]1C[C@H]2O[C@@](C)([C@@H]1OC)n1c3ccccc3c3c4c(c5c6ccccc6n2c5c31)C(=O)NC4 [staurosporine]; experiment: log2 fold change of tryptic peptide abundance, ligand vs vehicle (limited proteolysis) (log2 ratio); higher = more trypsin-susceptible (destabilized); conditions: ligand concentration: 20 uM; sample: mouse liver crude lysate; replicate design: treated separately

Row | Target | log2 fold change
1 | UniProt Q9CQ06 (peptide sequence: ATSSPFYR, peptide start residue: 13) | 0.31
2 | UniProt Q9CQN1 (peptide sequence: SLYSEKEVFIR, peptide start residue: 106) | -0.221
3 | UniProt Q9CQV4 (peptide sequence: DQQVEAAQR, peptide start residue: 32) | 0.104
4 | UniProt Q9CQ10 (peptide sequence: AHMNSVLMGMK, peptide start residue: 82) | 0.108
5 | UniProt Q99NG0 (peptide sequence: SHVLHSLLEGFVQR, peptide start residue: 547) | -0.488
6 | UniProt Q9CPV5 (peptide sequence: NQELADAVLAGR, peptide start residue: 156) | 0.272
7 | UniProt Q9CPU0 (peptide sequence: GFGHIGIAVPDVYSACK, peptide start residue: 124) | 0.134
8 | UniProt Q9CQZ5 (peptide sequence: VVDLLVIK, peptide start residue: 81) | -0.194
9 | UniProt Q9CQC5 (peptide sequence: LSCEPVMEEK, peptide start residue: 143) | 0.123
10 | UniProt Q99P31 (peptide sequence: SAFLLQNLLVGHPEHK, peptide start residue: 248) | 0.35
11 | UniProt Q9CR51 (peptide sequence: EAAALGSHGSCSSEVEK, peptide start residue: 59) | 0.202

Taken from above.
log2 fold change, UniProt Q9CQN1 (peptide sequence: SLYSEKEVFIR, peptide start residue: 106) reads -0.221
log2 fold change, UniProt Q9CQV4 (peptide sequence: DQQVEAAQR, peptide start residue: 32) reads 0.104
